Among the data in publication PMC8565065 are binding values, retold here.

Sequences of proteins named here, by UniProt entry; tags and fusion partners are left off. Residues count along the entry.
UniProt P02649, residues 19-317: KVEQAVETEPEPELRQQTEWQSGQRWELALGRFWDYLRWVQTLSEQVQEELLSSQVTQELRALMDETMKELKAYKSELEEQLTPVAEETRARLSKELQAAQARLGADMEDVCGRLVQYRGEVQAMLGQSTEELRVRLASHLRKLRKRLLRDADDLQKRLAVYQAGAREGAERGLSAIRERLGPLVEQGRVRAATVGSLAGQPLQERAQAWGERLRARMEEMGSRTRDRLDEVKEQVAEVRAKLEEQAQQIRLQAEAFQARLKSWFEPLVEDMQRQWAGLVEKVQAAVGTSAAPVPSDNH
UniProt P78509, residues 26-3460: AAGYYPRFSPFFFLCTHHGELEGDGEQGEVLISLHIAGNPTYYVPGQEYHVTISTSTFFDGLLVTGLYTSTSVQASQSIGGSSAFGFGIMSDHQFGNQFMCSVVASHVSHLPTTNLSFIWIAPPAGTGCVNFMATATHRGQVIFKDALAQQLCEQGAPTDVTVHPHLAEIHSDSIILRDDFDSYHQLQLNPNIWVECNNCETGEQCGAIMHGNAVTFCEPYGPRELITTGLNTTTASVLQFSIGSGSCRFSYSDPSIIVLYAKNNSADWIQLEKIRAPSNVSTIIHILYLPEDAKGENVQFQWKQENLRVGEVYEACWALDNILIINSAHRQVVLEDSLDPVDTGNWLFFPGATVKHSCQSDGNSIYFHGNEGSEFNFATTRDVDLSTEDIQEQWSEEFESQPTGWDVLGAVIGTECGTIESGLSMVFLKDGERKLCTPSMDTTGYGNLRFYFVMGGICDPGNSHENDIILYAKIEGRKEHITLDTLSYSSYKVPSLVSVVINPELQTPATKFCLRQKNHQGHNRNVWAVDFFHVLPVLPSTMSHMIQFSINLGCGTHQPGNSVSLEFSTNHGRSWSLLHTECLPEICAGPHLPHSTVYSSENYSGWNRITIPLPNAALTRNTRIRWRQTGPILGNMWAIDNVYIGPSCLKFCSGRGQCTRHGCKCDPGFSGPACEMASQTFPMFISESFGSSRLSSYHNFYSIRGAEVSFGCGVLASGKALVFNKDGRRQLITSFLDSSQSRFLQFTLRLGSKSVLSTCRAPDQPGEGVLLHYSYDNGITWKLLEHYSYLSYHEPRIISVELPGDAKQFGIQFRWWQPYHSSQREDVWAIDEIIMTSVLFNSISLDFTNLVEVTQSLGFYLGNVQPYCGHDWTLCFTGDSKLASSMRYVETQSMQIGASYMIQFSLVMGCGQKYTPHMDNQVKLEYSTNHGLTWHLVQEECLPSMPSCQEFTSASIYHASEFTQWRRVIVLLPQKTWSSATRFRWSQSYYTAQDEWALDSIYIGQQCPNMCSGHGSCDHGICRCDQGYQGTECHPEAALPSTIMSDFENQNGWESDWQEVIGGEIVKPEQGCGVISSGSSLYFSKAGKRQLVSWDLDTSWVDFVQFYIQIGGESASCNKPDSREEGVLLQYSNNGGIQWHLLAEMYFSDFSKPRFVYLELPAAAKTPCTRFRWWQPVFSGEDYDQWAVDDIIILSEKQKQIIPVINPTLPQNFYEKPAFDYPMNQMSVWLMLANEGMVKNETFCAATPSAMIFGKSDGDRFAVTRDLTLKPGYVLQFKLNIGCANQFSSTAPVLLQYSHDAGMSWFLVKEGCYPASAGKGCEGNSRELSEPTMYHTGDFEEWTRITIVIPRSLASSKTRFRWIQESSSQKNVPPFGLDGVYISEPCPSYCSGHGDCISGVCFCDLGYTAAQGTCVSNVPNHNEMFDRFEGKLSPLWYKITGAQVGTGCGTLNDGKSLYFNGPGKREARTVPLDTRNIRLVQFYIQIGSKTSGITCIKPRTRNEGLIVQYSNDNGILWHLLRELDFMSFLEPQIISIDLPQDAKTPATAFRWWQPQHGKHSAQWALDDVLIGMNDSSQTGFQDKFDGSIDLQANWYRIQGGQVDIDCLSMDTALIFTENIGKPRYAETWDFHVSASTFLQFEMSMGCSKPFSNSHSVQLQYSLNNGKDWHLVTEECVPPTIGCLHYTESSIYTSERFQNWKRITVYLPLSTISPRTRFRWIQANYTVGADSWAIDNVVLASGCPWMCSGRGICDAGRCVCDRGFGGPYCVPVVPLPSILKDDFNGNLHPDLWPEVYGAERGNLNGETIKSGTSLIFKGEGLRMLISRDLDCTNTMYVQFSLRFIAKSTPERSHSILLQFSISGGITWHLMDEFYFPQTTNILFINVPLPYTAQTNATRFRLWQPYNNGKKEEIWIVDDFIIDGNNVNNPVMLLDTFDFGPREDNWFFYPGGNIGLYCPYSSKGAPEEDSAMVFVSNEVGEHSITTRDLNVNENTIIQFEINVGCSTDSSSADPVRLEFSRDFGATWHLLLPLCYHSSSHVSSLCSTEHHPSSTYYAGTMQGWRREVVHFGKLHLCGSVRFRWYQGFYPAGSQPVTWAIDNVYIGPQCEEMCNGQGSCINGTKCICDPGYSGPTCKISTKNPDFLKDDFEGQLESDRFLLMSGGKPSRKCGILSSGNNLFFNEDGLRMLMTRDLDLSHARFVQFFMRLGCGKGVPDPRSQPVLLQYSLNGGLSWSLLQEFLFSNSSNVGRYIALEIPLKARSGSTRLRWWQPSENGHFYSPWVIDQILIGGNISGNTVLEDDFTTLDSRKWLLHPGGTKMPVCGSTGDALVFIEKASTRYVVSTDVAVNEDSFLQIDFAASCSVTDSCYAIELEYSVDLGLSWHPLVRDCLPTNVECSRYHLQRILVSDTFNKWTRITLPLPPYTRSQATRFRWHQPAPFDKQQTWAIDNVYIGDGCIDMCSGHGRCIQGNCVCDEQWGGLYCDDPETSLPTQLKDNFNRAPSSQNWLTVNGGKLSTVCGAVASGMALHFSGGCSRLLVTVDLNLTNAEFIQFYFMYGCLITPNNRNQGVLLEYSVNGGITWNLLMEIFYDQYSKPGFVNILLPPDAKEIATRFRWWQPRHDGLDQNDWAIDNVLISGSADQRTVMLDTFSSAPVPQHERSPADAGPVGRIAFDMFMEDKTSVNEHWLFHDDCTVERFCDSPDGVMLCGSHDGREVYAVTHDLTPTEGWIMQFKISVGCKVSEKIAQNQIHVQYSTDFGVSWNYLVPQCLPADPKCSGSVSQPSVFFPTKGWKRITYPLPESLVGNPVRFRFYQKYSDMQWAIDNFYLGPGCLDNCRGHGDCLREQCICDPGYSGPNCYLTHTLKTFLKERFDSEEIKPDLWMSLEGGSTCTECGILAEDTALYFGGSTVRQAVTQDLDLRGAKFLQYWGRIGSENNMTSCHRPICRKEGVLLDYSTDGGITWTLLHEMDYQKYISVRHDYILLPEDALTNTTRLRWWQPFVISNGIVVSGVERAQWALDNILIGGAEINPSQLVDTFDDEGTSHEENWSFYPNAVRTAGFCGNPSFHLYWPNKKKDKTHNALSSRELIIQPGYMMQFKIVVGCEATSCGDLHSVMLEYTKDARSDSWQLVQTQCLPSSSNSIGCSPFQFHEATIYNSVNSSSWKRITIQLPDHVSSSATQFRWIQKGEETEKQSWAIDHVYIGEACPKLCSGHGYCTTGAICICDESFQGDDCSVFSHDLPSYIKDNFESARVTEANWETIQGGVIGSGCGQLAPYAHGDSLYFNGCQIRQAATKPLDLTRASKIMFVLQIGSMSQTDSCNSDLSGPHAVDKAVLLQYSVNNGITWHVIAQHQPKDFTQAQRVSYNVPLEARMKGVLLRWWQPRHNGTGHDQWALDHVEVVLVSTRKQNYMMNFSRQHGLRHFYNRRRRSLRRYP

In this test the target is T1, low-density lipoprotein receptor-related protein 3 (LRP3), endogenous in human frontal cortex (human (endogenous in frontal cortex)) (UniProt O75074).
T1 sequence: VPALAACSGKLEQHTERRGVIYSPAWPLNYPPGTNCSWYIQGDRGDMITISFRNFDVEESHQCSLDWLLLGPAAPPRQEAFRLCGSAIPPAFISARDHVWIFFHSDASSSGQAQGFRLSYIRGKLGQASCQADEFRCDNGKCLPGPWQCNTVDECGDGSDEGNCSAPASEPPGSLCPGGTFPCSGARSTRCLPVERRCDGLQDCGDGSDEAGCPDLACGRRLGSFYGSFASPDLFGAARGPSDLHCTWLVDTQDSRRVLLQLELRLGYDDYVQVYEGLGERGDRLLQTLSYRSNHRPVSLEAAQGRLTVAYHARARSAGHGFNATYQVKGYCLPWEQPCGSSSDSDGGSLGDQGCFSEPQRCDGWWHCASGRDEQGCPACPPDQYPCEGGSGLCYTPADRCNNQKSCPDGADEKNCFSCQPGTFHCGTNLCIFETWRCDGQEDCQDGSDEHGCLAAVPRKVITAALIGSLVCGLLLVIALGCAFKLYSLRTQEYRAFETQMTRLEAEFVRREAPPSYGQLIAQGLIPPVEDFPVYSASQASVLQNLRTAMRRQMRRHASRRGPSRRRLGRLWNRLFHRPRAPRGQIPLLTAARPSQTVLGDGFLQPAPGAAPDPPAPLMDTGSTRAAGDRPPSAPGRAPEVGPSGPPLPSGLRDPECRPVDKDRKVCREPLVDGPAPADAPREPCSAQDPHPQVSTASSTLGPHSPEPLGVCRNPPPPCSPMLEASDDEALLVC
Nature of the test: co-IP; human frontal cortex extracts (100 μL; MA and AD-related pathology cases) incubated 2.5 h at room temperature with magnetic beads coupled to an anti-C-terminal LRP3 antibody; mouse IgG as negative control; input, bound and unbound fractions blotted.

No constants are given. Whether binding was seen depends on the method and setting. Binding seen in cells or lysates may run through a third protein. Some entries that bind do so weakly or less than the wild type.

Consider “apolipoprotein E (apoE), endogenous in human frontal cortex (from UniProt P02649 19-317) (ligand)”, for which the binding result is “binds”.

With “reelin, endogenous in human frontal cortex (from UniProt P78509 26-3460) (ligand)”, the binding entry is reported as “no binding”.
